Laboratory results reported in patent publication US20150044245A1, “PARTIAL MHC CONSTRUCTS AND METHODS OF USE” (Oregon Health & Science University, priority 2012, published 2015).
These are yes or no findings as the source states them, for the method shown. For part of these data: Binding seen in cells or lysates may run through a third protein. Some results given as binding are weak or reduced against the parent protein; the word gives no strength.

Experiments:
[1] = biological target: T1, CD74 (MHC class II invariant chain) of DR*1501-Tg mouse splenocytes and monocytes (mouse) (UniProt P04441); assay: conclusion from co-immunoprecipitation, competition and direct binding
T1 sequence (surface biotinylated in the immunoprecipitation experiments, looked up): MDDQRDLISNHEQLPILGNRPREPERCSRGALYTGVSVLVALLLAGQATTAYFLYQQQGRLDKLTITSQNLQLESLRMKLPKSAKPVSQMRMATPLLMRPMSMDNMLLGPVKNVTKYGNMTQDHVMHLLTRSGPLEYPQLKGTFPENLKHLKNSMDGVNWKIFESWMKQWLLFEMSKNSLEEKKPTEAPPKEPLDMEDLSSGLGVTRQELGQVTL

[2] = biological target: T1, CD74 (MHC class II invariant chain) of DR*1501-Tg mouse splenocytes and monocytes (mouse); assay: direct binding of FITC-labeled constructs to immune-purified CD74
[3] = biological target: T1, CD74 (MHC class II invariant chain) of DR*1501-Tg mouse splenocytes and monocytes (mouse); assay: FITC-labeled construct incubated with bead-immunopurified CD74; SDS-PAGE scanned for FITC

Measured: binding

B1: DR-α1 domain alone (no DR2-β1 domain or peptide) (other, UniProt P01903 26-109, looked up)
chain: IKEEHVIIQAEFYLNPDQSGEFMFDFDGDEIFHVDMAKKETVWRLEEFGRFASFEAQGALANIAVDKANLEIMTKRSNYTPITN
modifications: labeled with FITC in the direct binding assays
notes: domain: α1
binds: all assays above
